Experimental data as given in the supplement of paper PMC12889115.
This is one part of the list. These are raw signals, not scaled to a control.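 Primary screen: polymyxin B was added at a level permeabilizing Salmonella outer membranes while sparing inner membranes. DMSO wells, both with and without polymyxin B, established maximum growth. Plate-to-plate variation meant each plate was ranked on its own, and the lowest-OD600 compounds were selected as hits.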

Tested on: Salmonella enterica serovar Typhimurium SL1344
Assay: bacterial growth OD600 after 18 h with compound and polymyxin B; higher = more bacterial growth (less inhibition)
Conditions: 50 µM, Mueller-Hinton broth

Structure (SMILES) | bacterial growth OD600 (polymyxin B 1 µg/mL) | bacterial growth OD600 (polymyxin B 0.75 µg/mL)
COc1ccc(C(=O)NCc2cc(C)n(C)n2)cc1OC1CCN(C(C)C)CC1 | 1.08 | –
COc1ccc(CN(C)Cc2nc(-c3cccc(F)c3)oc2C)c2cccnc12 | – | 0.84
c1cnc(N2CCOCC2)c(CNCc2ccc(C3CCCCO3)o2)c1 (stereo unspecified) | 0.776 | –
CC(C)=CC(=O)N1CCC(Oc2cccc(C(=O)NCc3ccccn3)c2)CC1 | 0.828 | –
COc1cc(CNC2CCN(c3ccc(C(=O)NC4CCCC4)cc3)CC2)cc(OC)c1OC | – | 0.853
COC(=O)[C@@H](NC1CCN(c2ccc(NC(=O)c3cnccn3)cc2)CC1)c1ccccc1 | – | 0.874
O=C(NCC1CCCCO1)c1coc(COc2ccc3ncccc3c2)n1 (stereo unspecified) | 0.877 | –
Cc1cc(C(=O)N2CCC(C3CCN(CC(C)C)CC3)C2)c(C)o1 (stereo unspecified) | – | 0.715
CCOc1ccc(CN2CCC(Oc3cc(OC)ccc3C(=O)N3CCCC3)CC2)cc1 | 1.16 | –
CCO[C@H]1[C@H](NC(=O)c2cccnc2)c2ccccc2C12CCN(C(=O)c1ccc(F)cc1)CC2 | – | 0.816
CN(Cc1ccccc1Cl)C(=O)c1coc(COc2cccc(F)c2)n1 | 0.046 | –
O=C(NCC1CCCN(S(=O)(=O)/C=C/c2ccccc2)C1)c1ccco1 (stereo unspecified) | – | 0.033
COc1ccc(OCc2nc(C(=O)N(C)Cc3cccnc3)co2)cc1 | 0.929 | –
CCOC(=O)C1CCCN(C(=O)CC2(c3cccc(C(F)(F)F)c3)CC(=O)N(CC)C2=O)C1 (stereo unspecified) | – | 0.701
COC(=O)C1CCN(Cc2cn(-c3ccccc3)nc2-c2ccc3c(c2)OCO3)CC1 | 0.904 | –
O=C1CCCN1CCC(=O)N1CCc2[nH]nc(-c3ccc(C(F)(F)F)cc3)c2C1 | – | 0.949

Part of the list above in order of count of non-hydrogen atoms, ascending.
Structure (SMILES) | bacterial growth OD600 (polymyxin B 1 µg/mL) | bacterial growth OD600 (polymyxin B 0.75 µg/mL)
Cc1cc(C(=O)N2CCC(C3CCN(CC(C)C)CC3)C2)c(C)o1 (stereo unspecified) | – | 0.715
CN(Cc1ccccc1Cl)C(=O)c1coc(COc2cccc(F)c2)n1 | 0.046 | –
COc1ccc(C(=O)NCc2cc(C)n(C)n2)cc1OC1CCN(C(C)C)CC1 | 1.08 | –
COC(=O)C1CCN(Cc2cn(-c3ccccc3)nc2-c2ccc3c(c2)OCO3)CC1 | 0.904 | –
CCOc1ccc(CN2CCC(Oc3cc(OC)ccc3C(=O)N3CCCC3)CC2)cc1 | 1.16 | –
COC(=O)[C@@H](NC1CCN(c2ccc(NC(=O)c3cnccn3)cc2)CC1)c1ccccc1 | – | 0.874
CCO[C@H]1[C@H](NC(=O)c2cccnc2)c2ccccc2C12CCN(C(=O)c1ccc(F)cc1)CC2 | – | 0.816

(list continues)

Structure (SMILES) | bacterial growth OD600 (polymyxin B 1 µg/mL) | bacterial growth OD600 (polymyxin B 0.75 µg/mL)
COc1ccc(-c2nn(-c3ccccc3C)cc2CN(C)C2CCOC2)cc1F (stereo unspecified) | 0.612 | –
COC(=O)c1ccc(CNCCC2CCC(=O)N2CCOC(C)C)cc1 (stereo unspecified) | – | 0.947
Cc1nc(N2CCC(C(=O)NCC3OCCc4ccccc43)CC2)nc2cc(S(C)(=O)=O)ccc12 (stereo unspecified) | – | 0.82
CC(C)N1CCC(C(=O)N2CCCC(CCc3cccc(F)c3)C2)CC1 (stereo unspecified) | – | 0.516
CC(=O)NCC(=O)N1CCC(C2CCN(Cc3ccc(Cl)cc3)C2)CC1 (stereo unspecified) | – | 0.904
Cc1ccccc1N1CCN(c2ncccc2CNC(=O)C2CCCC2)CC1 | 0.095 | –
CSCCNC(=O)C1CCC(=O)N(CCc2cccc(F)c2)C1 (stereo unspecified) | 0.789 | –
Cc1ccccc1-n1nnnc1C(c1ccccc1)N(C)C(=O)CCC1(C)CCC(=O)N1 (stereo unspecified) | – | 0.82
COCCCN1C(=O)CC(CC(=O)N2CCCCC2c2nccs2)(c2ccccc2OC)C1=O (stereo unspecified) | – | 0.949
CN(CC1Cc2ccccc2O1)C(=O)CCC1(Cc2ccc(Cl)cc2)CCC(=O)N1 (stereo unspecified) | – | 0.883
Cc1c(CNCC2(O)CCCN(CC3CCCCC3)C2=O)cnn1C (stereo unspecified) | – | 0.926
O=C1N(Cc2ccc(F)c(F)c2)CCCC1(O)CNCc1ccccc1 (stereo unspecified) | 0.923 | –
OCc1ccc(CN2CCc3onc(C(c4ccccc4)c4ccccc4)c3C2)o1 | – | 0.632
Cc1noc(C)c1CC(=O)NC1CC(=O)N(CC2CCCCC2)C1 (stereo unspecified) | 0.922 | –
CSCCC(=O)N1CCCC1C(=O)Nc1cccc(-n2cccn2)c1 (stereo unspecified) | 1 | –
